According to patent publication US12391672B2, “Solid forms comprising (S)-4-(4-(4-(((2-(2,6-dioxopiperidin-3-yl)-1-oxoisoindolin-4-yl)oxy)methyl)benzyl)piperazin-1-yl)-3-fluorobenzonitrile and salts thereof, and compositions comprising and methods of using the same” (Celgene Corporation, priority 2019, dated 2025):
Some entries share one result that the patent states for a list of compounds. At least one compound was matched to its structure with a doubt left.

Experiment: Solubility determination (15 minutes at room temperature, HPLC)
Format: physicochemical
Conditions: fifteen minutes, below limit of quantitation; for solubility at pH 6.8: pH 6.8 buffer
Protocol: 1 mL of buffer or of ultrapure (resistivity≥18.2 Mf cm) water was added to a pre-weighed, approximately twenty milligram aliquot of the substance to be measured. The resulting suspensions were stirred for 15 minutes at room temperature with magnetic stirrers. The suspensions were centrifuged and filtered through Millipore 0.2 μm PVDF filters, and the concentration of each filtrate (i.e., saturated solution) was determined using a general HPLC method. The pH of each saturated solution was measured with a Metrohm 713 pH meter.
To assess whether Form K and Form K′ are likely to have different bioavailabilities, comparative solubility measurements were carried out in physiologically relevant media. Samples of Form K and Form K′ were separately equilibrated in pure water, pH 2.0 buffer, and pH 6.8 buffer for fifteen minutes, and the solids were then separated from the solvents. The concentration of the compound in the filtrate (i.e., the solubility) was assessed in each case, and the solid residues were also monitored by powder X-ray diffraction. All six solid residues correspond to Form K, confirming that Form K′ rapidly incorporates water into its lattice when suspended in an aqueous environment even when the solubility is low. While the solubilities in pure water and at pH 6.8 were below the limit of quantitation of 0.0001 mg/mL, the solubilities at pH 2.0 could be measured. […] Thus, the bioavailabilities of the two forms are expected to be similar, and precise control of the water content (and, thereby, the solid form) is presumably not necessary from a scientific point of view. Given that the critical water activity is in the range aH2O=0.11-0.17, the hydrated Form K is likely to be the more easily stabilized of the two forms under ambient laboratory conditions.

Structure (SMILES) | solubility at pH 6.8 [mg/mL] | solubility in pure water [µg/mL]
N#Cc1ccc(N2CCN(Cc3ccc(COc4cccc5c4CN([C@H]4CCC(=O)NC4=O)C5=O)cc3)CC2)c(F)c1.O [Form K of a free base of Compound 1] | < 0.0001 | < 0.1
N#Cc1ccc(N2CCN(Cc3ccc(COc4cccc5c4CN([C@H]4CCC(=O)NC4=O)C5=O)cc3)CC2)c(F)c1 [Form K′ of a free base of Compound 1] | < 0.0001 | < 0.1
